This assay addresses Rat KIF5C (kinesin-1 heavy chain), residues 2 to 955 (rat) (UniProt P56536). In words: negative-stain EM (single particle); Co-expressed, co-purified complex from SEC peak 2, cross-linked with 0.6 mM BS3, stained with 3% uranyl acetate; cryo-negative-stain dataset, RELION 2D classes and 3D reconstruction at 29.1 Å.

Protein sequences, listed by entry. Tags and fused reporters are not part of them. Residues count along the entry.
UniProt P56536, residues 2-955: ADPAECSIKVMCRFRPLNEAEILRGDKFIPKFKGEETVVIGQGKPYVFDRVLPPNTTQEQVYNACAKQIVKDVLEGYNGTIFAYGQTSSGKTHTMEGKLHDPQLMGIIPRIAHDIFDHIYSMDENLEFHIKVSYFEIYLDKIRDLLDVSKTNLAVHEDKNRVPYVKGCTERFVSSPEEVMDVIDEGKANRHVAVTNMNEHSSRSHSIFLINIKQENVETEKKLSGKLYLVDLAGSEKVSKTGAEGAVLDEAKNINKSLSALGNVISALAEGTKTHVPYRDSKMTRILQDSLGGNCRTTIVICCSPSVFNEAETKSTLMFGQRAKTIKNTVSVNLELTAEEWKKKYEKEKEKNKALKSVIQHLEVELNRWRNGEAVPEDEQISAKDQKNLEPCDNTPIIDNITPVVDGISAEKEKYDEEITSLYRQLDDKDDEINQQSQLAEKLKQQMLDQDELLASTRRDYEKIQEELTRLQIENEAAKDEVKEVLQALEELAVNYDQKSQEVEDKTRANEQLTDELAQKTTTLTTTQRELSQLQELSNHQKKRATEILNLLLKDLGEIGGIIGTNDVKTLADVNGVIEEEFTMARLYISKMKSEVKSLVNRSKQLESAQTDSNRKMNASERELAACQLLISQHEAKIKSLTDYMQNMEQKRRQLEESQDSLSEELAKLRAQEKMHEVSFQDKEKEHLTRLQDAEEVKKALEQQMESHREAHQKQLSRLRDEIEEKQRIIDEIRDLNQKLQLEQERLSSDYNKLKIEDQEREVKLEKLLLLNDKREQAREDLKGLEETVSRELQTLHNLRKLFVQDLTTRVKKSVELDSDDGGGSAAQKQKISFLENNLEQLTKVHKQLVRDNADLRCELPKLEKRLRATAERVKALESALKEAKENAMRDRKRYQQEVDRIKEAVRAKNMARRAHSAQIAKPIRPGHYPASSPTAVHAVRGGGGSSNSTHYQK

These results are taken from PMC9481135.

Results are given in words; binding and its absence hold for the method and conditions named. Some results given as binding are weak or reduced against the parent protein; the word gives no strength.

Consider “Rat KIF5C (kinesin-1 heavy chain), residues 2 to 955 (from UniProt P56536 2-955)”, for which the binding entry is “binds”.
